Measured values reported in patent US20110256206A1, “IMPLANTABLE DEVICES FOR TREATING HIV” (priority 2008, published 2011).
“And” between values parts separate entries of the source, which are not always exact repeats. Equal values may be shown once. The name of at least one read-out is uncertain.

Test: Effect of gamma irradiation process parameters on recovery of TMC278 from polymer specimens
Type: physicochemical
Conditions: for TMC278 recovery: 60% TMC278/40% PLGA 50/50 implants
Description: For those samples that were irradiated under a nitrogen atmosphere, the following procedure was followed. Polymer implants were prepared containing 60% TMC278 and 40% PLGA 50/50 as described above. Samples were placed in Nalgene™ cuvettes inside the antechamber of a nitrogen glovebox. An automatic vacuum cycle was executed consisting of three 8 minute vacuum purges each followed by nitrogen refilling. The samples were transferred to the main chamber and allowed to equilibrate overnight. The cuvettes were placed in foil pouches and the pouches were sealed before removal from the nitrogen glovebox. Samples were removed from glovebox and irradiated as directed.
Those samples that were irradiated under ambient conditions were placed in vials and aluminum pouches, which were heat sealed under ambient conditions and were stored at 0° C. until they reached that temperature. The samples that were processed at 0° C. were stored at 0° C. Subsequently, the samples were removed from freezer environment and immediately placed in the irradiator. Following irradiation the samples were assayed for TMC278 content.
From the data it can be seen that exposure level of irradiation is the most significant factor in achieving complete recovery of TMC278 from irradiated samples. Only 81% of the TMC278 was recovered from samples that were irradiated at 25 kgy (under nitrogen) relative to 100% average recover of samples irradiated at 15 kgy (under nitrogen). For the two sets of samples that were irradiated at 25 kgy at ambient temperature there was only a slight increase in recovery from samples packaged under nitrogen versus samples packaged under ambient conditions. At 25 kgy, reduced temperature was important in achieving complete recovery of TMC278, however, at 15 kgy, since 100% was already achieved without reduced temperature, obviously, reduced temperature is not required. In addition, the samples that were exposed to 15 kgy irradiation under nitrogen environment were analyzed for impurities stemming from TMC278 degradation.

In the case of `Cc1cc(C=CC#N)cc(C)c1Nc1ccnc(Nc2ccc(C#N)cc2)n1` [TMC278, 4-[[4-[[4-(2-cyanoethenyl)-2,6-dimethylphenyl}-amino]-2-pyrimidinyl]-amino]-benzonitrile], the TMC278 recovery (control, not irradiated) was 100%, the TMC278 recovery (gamma 15 kgy, nitrogen, room temp) was 94% and 105% and the TMC278 recovery (gamma 25 kgy, ambient environment, room temp) was 82% and 77%. For the same compound, the TMC278 recovery (gamma 25 kgy, nitrogen, 0° C.) was 90% and 89%, the TMC278 recovery (gamma 25 kgy, nitrogen, room temp) was 78% and 85% and the TMC278 average recovery (irradiated at 15 kgy (under nitrogen)) was 100%.
